Cleaved PARP in drug-treated melanoma cells

Compounds and concentrations:
KU-0063794: COc1ccc(-c2ccc3c(N4CCOCC4)nc(N4C[C@@H](C)O[C@@H](C)C4)nc3n2)cc1CO at 0.1 µM
selumetinib: Cn1cnc2c(F)c(Nc3ccc(Br)cc3Cl)c(C(=O)NOCCO)cc21 at 0.075 µM
vatalanib: Clc1ccc(Nc2nnc(Cc3ccncc3)c3ccccc23)cc1 at 10 µM
erlotinib: C#Cc1cccc(Nc2ncnc3cc(OCCOC)c(OCCOC)cc23)c1 at 4 µM
JZL184: O=C(Oc1ccc([N+](=O)[O-])cc1)N1CCC(C(O)(c2ccc3c(c2)OCO3)c2ccc3c(c2)OCO3)CC1 at 5 µM
MK-1775: C=CCn1c(=O)c2cnc(Nc3ccc(N4CCN(C)CC4)cc3)nc2n1-c1cccc(C(C)(C)O)n1 at 0.1 µM
PF-562271: CN(c1ncccc1CNc1nc(Nc2ccc3c(c2)CC(=O)N3)ncc1C(F)(F)F)S(C)(=O)=O at 0.4 µM
AZD7762: NC(=O)Nc1cc(-c2cccc(F)c2)sc1C(=O)N[C@H]1CCCNC1 at 0.1 µM
MK-2206: NC1(c2ccc(-c3nc4ccn5c(=O)[nH]nc5c4cc3-c3ccccc3)cc2)CCC1 at 2 µM
fingolimod: CCCCCCCCc1ccc(CCC(N)(CO)CO)cc1 at 10 µM
GW441756: Cn1cc(/C=C2\C(=O)Nc3cccnc32)c2ccccc21 at 2 µM
bexarotene: C=C(c1ccc(C(=O)O)cc1)c1cc2c(cc1C)C(C)(C)CCC2(C)C at 10 µM

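Human melanoma cell lines in 1,536-well plates were treated with a pair of drugs for 72 h, then fixed, stained and imaged. Values are the share of nuclei positive for cleaved PARP as a percentage of the same share in the DMSO control: 100 is the control level, higher means more apoptosis. Concentrations were fixed for each drug; these are the higher of two levels. These are primary screening values without error estimates. Basal and induced levels differ widely between cell lines.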
Only some of the drugs and lines screened are listed, without regard to their results.
An entry leaves out what has no value listed here.
A dash means that no value is listed here.

Pair: vatalanib + PF-562271
C32: 638
WM1745: 272

Pair: KU-0063794 + AZD7762
C32: 138
WM1745: 155

Pair: bexarotene + erlotinib
C32: 497
WM1745: 124

Pair: KU-0063794 + MK-1775
C32: 89.9
WM1745: 222

Pair: MK-1775 + AZD7762
C32: 1510
WM1745: 310

Pair: MK-2206 + fingolimod
C32: 1140
WM1745: 785

Pair: JZL184 + erlotinib
C32: 103
WM1745: 160

Pair: KU-0063794 + JZL184
C32: 96.8
WM1745: 90.0

Pair: PF-562271 + AZD7762
C32: 275
WM1745: 233

Pair: selumetinib + fingolimod
C32: 298
WM1745: 1110

Pair: fingolimod + AZD7762
C32: 4090
WM1745: 605

Pair: KU-0063794 + bexarotene
C32: 80.2

Pair: erlotinib + vatalanib
C32: 202
WM1745: 204

Pair: MK-1775 + vatalanib
C32: 314
WM1745: 168

Pair: JZL184 + MK-2206
C32: 174

Pair: bexarotene + selumetinib
C32: 132
WM1745: 120

Pair: MK-1775 + bexarotene
C32: 57.3
WM1745: 141

Pair: fingolimod + MK-1775
C32: 3880
WM1745: 809

Pair: vatalanib + AZD7762
C32: 1110
WM1745: 120

Pair: JZL184 + selumetinib
C32: 177

Pair: JZL184 + PF-562271
C32: 139

Pair: MK-2206 + selumetinib
C32: 240
WM1745: 129

Pair: MK-1775 + erlotinib
C32: 253
WM1745: 239

Pair: selumetinib + AZD7762
C32: 258
WM1745: 281

Pair: GW441756 + JZL184
C32: 110
WM1745: 121

Pair: vatalanib + MK-2206
C32: 646
WM1745: 217

Pair: vatalanib + GW441756
C32: 97.0

Pair: fingolimod + vatalanib
C32: 526
WM1745: 2380

Pair: vatalanib + selumetinib
C32: 470
WM1745: 241

Pair: vatalanib + KU-0063794
C32: 88.8

Pair: fingolimod + KU-0063794
C32: 1330

Pair: PF-562271 + KU-0063794
C32: 104

Pair: KU-0063794 + GW441756
C32: 102
WM1745: 130

Pair: JZL184 + bexarotene
C32: 65.5

3 of the entries, repeated:

Pair,C32,WM1745
JZL184 + erlotinib,103,160
vatalanib + GW441756,97.0,-
JZL184 + MK-2206,174,-

From a melanoma drug combination screen (doi:10.1371/journal.pone.0140310); values rounded.